PubChem BioAssay AID1508597 – Cure First – 2020

Assay: 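Survival screen with siRNA in ovarian cancer cells derived from patients, with or without rucaparib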 (primary screen)
Cells: human ovarian carcinoma lines grown from tumours: OCI-P5x (papillary serous) and OCI-C5x (clear cell)
Reagents: siRNA pool against human genes, 1.25 pmol siRNA per well
Duration: 72 h or 96 h, depending on the cell culture
Treatment: rucaparib 20 µM (about IC30) or vehicle, present until read-out
Rucaparib or vehicle: Rucaparib
Cell line: OCI-P5x (serous)
Measurement: 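Luminescent ATP-based viability assay read 72 or 96 h after transfection, depending on culture, given as normalised percent viability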
Scale: viability, normalised: higher = more viable cells remaining
Active means: 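Active when normalised viability falls below 80 percent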
Calls: active = viability under 80%; inactive = viability 80% or more
This is a random part of the about 2,100 reagents, in one setting of the screen. 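Calls flag viability under 80% in either arm, not effects specific to rucaparib; the reference for percent is not stated.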 A reagent listed more than once was tested more than once; the source does not tell the runs apart. Not given: the 100% reference.

gene symbol	technical replicate	viability, normalised (%)	call
ESRRB	1	75.1	active
ESRRB	2	91.1	inactive
ESRRB	3	90.6	inactive
PHF1	1	44.8	active
PHF1	2	41.6	active
PHF1	3	42.9	active
DGUOK	1	78.3	active
DGUOK	2	83.4	inactive
DGUOK	3	77.5	active
PAK2	1	80	active
PAK2	2	69.6	active
PAK2	3	66.8	active
KDM6A	1	64.1	active
KDM6A	2	55.3	active
KDM6A	3	55.4	active
KMT2B	1	54	active
KMT2B	2	54.8	active
KMT2B	3	59.3	active
INO80E	1	78.5	active
INO80E	2	78.4	active
INO80E	3	77.4	active
RNASEL	1	91.3	inactive
RNASEL	2	85.4	inactive
RNASEL	3	72.9	active
PFKM	1	137	inactive
PFKM	2	119	inactive
PFKM	3	125	inactive
PINK1	1	109	inactive
PINK1	2	98.7	inactive
PINK1	3	89.5	inactive
CXXC4	1	72.6	active
CXXC4	2	70.3	active
CXXC4	3	72.7	active
FGR	1	75.5	active
FGR	2	64.7	active
FGR	3	64.4	active

Continued; the last 10 above are carried over.
gene symbol	technical replicate	viability, normalised (%)	call
PFKM	3	125	inactive
PINK1	1	109	inactive
PINK1	2	98.7	inactive
PINK1	3	89.5	inactive
CXXC4	1	72.6	active
CXXC4	2	70.3	active
CXXC4	3	72.7	active
FGR	1	75.5	active
FGR	2	64.7	active
FGR	3	64.4	active
TRIM33	1	55	active
TRIM33	1	134	inactive
TRIM33	2	67.9	active
TRIM33	2	114	inactive
TRIM33	3	61.5	active
TRIM33	3	93.7	inactive
RCOR3	1	64.3	active
RCOR3	2	59	active
RCOR3	3	66.4	active
PRDM15	1	53.6	active
PRDM15	2	61.5	active
PRDM15	3	50.2	active
DDX23	1	59.7	active
DDX23	2	60.4	active
DDX23	3	60.4	active
H4C4	1	39.2	active
H4C4	2	46.7	active
H4C4	3	52	active
HK1	1	96.4	inactive
HK1	2	84.2	inactive
HK1	3	82.3	inactive
WNK1	1	85.6	inactive
WNK1	1	62.3	active
WNK1	2	92.9	inactive
WNK1	2	77.8	active
WNK1	3	88	inactive
TDRD12	1	46.8	active
TDRD12	2	52.6	active
TDRD12	3	52.2	active
KDM5A	1	49	active
KDM5A	2	41.5	active
KDM5A	3	48.5	active
PRKAR1A	1	91.5	inactive
PRKAR1A	2	66.9	active
PRKAR1A	3	63.6	active
PRDM10	1	41	active
PRDM10	2	49.9	active
PRDM10	3	49.6	active
